Compound in the experiment: Nc1nc2c(ncn2[C@@H]2O[C@H](COP(=O)(O)OP(=O)(O)OP(=O)(O)O)[C@@H](O)[C@H]2O)c(=O)[nH]1 [guanosine triphosphate]
Kind of experiment: NP40-soluble protein abundance relative to vehicle (solubility fold change) (ratio); higher = more soluble protein in presence of GTP. The gist of the method: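 Eight concentrations, 0.1 to 10 mM, were tested on Jurkat crude lysate for 10 min at room temperature and then 3 min at 37 °C, in three independent experiments. The lysate was solubilised with 0.8% NP40 and benzonase, ultracentrifuged, and the supernatant TMT-labelled for LC-MS/MS. Each value is the fold change against the detergent-processed vehicle in its own replicate, from vsn-normalised intensities.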

By UniProt entry, the sequences of proteins in these tests, tags left out. Where a name states a change or a piece, a line headed by the entry shows the natural chain unless it says otherwise.
UniProt P02792: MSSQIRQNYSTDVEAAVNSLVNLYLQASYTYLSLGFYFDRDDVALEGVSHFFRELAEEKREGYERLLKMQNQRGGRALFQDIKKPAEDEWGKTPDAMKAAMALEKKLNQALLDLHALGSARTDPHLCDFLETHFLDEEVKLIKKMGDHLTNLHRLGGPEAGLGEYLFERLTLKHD
UniProt Q9UBK9, whole entry: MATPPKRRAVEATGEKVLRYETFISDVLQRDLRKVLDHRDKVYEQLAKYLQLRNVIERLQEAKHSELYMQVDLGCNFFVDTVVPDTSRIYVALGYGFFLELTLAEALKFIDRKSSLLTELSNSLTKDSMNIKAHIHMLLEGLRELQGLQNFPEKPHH
UniProt Q16718, whole entry: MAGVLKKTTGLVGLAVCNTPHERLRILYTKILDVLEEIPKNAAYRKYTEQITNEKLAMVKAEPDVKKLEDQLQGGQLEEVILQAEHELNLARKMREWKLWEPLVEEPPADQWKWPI
UniProt P59780: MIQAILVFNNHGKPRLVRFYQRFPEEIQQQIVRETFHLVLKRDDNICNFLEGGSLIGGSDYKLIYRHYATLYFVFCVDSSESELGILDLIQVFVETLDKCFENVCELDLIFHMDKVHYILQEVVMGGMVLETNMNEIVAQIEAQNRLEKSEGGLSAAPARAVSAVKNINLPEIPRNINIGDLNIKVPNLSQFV
UniProt O95319: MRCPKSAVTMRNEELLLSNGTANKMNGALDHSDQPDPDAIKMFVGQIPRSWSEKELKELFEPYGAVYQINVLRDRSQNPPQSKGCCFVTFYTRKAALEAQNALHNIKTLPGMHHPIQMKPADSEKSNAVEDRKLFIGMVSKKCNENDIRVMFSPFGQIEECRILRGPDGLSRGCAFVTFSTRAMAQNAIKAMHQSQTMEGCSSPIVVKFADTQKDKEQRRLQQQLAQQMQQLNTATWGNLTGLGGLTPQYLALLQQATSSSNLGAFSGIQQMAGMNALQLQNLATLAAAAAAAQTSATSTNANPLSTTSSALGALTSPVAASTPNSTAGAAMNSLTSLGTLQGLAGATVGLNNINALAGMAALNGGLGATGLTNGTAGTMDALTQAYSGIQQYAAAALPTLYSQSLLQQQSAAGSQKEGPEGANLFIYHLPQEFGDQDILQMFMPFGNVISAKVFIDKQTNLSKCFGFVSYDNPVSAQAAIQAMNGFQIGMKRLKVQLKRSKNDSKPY
UniProt A1L020: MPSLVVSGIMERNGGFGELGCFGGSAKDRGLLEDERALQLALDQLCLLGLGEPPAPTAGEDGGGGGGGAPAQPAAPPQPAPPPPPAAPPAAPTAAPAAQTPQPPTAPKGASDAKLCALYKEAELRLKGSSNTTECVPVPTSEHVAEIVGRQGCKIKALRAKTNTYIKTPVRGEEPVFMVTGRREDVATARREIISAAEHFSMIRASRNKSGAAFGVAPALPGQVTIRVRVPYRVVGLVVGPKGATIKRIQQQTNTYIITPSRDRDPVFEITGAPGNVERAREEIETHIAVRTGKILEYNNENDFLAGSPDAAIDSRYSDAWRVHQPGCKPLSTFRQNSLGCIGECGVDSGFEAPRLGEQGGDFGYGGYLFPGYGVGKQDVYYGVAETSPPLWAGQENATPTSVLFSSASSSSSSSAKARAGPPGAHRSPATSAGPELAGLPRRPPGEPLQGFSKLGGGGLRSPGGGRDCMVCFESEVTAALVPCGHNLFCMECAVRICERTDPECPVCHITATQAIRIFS
UniProt Q6AI08: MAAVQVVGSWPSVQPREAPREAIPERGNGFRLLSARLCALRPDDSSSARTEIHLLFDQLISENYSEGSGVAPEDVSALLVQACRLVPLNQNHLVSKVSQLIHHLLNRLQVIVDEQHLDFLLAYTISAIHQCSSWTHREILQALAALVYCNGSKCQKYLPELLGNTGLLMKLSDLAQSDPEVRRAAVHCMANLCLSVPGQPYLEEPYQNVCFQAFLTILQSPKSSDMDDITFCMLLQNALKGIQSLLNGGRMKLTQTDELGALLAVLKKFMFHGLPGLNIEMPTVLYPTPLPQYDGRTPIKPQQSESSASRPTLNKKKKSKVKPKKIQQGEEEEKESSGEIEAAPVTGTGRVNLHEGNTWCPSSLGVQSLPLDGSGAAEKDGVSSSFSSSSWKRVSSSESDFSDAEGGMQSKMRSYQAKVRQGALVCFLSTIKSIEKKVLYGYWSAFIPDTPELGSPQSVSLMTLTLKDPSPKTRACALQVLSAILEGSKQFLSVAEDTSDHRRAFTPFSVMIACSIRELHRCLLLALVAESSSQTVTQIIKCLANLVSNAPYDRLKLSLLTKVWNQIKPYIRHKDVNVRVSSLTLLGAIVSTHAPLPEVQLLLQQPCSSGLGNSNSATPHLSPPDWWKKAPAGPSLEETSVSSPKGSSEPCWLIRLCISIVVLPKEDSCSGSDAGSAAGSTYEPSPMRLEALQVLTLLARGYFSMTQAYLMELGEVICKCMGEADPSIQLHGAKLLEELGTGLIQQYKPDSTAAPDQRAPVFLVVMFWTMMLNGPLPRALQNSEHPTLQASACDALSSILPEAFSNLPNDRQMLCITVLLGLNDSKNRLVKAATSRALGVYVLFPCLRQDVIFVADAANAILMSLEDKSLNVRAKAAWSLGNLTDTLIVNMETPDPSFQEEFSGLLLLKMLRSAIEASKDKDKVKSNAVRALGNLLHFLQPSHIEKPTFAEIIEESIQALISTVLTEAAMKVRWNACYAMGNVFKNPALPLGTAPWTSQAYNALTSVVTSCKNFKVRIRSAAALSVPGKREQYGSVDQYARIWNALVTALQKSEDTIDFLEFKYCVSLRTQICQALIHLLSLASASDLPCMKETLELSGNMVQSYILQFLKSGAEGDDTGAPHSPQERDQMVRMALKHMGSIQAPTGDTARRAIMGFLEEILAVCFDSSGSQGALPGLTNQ
UniProt Q8IXQ4: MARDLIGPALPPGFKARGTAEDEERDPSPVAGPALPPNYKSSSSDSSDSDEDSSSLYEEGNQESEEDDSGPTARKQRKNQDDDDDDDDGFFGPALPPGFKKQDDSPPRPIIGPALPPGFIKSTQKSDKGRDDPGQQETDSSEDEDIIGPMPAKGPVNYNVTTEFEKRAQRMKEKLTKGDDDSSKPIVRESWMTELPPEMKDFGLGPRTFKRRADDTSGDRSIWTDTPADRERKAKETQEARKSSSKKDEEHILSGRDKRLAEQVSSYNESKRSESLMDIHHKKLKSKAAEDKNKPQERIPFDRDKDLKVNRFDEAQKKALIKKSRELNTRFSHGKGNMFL
UniProt O60613, whole entry: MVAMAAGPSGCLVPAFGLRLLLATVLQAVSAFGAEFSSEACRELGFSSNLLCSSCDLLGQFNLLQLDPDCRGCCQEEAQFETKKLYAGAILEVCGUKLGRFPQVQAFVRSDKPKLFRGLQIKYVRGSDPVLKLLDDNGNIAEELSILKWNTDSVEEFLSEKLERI
UniProt Q9UBW5: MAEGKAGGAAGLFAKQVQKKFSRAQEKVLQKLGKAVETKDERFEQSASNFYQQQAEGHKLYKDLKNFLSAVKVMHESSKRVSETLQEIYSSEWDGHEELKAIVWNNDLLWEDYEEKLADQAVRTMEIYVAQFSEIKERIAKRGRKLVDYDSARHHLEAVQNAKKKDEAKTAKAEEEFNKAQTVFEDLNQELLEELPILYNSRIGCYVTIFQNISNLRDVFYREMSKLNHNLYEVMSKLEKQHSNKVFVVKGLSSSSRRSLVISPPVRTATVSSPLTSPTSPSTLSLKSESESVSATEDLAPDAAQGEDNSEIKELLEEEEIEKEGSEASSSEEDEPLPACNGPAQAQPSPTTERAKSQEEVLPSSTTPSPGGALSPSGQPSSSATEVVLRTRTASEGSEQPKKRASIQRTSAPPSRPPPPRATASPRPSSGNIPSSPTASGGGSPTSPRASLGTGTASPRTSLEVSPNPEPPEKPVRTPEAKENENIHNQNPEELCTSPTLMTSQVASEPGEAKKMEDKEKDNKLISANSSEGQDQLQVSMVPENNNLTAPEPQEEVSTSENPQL
UniProt P38571: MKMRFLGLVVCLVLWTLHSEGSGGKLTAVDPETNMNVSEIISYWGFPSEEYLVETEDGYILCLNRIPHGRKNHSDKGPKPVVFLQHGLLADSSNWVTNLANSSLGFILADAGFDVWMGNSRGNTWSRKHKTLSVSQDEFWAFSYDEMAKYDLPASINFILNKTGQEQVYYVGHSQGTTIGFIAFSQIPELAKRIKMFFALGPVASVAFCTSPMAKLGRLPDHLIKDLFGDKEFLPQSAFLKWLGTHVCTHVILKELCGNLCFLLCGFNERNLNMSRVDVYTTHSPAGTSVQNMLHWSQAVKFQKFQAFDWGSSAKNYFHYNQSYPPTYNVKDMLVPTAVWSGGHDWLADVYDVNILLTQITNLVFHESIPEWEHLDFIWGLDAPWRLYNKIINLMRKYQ

± gives the standard deviation of the averaged measurements. This is one part of the list.

Results on twelve targets are retold here after the supplement of paper PMC6411743.

On to A0A087X1B9|P02792 (UniProt P02792), for which the NP40-soluble protein abundance is, setting by setting: (concentration: 0.1mM) 1.09 ± 0.16; (concentration: 0.5mM) 1.03 ± 0.21; (concentration: 1mM) 1.44 ± 0.11; (concentration: 2mM) 1.55 ± 0.054; (concentration: 4mM) 1.64 ± 0.14; (concentration: 6mM) 1.465 ± 0.0048. The NP40-soluble protein abundance is 1.43 ± 0.17 (concentration: 8mM) and 1.68 ± 0.12 (concentration: 10mM).

Regarding “A0A0C4DFR8|Q9UBK9 and related entries (UniProt Q9UBK9)”, the NP40-soluble protein abundance (concentration: 0.1mM) is 0.999 ± 0.083; the NP40-soluble protein abundance (concentration: 0.5mM) amounted to 1.04 ± 0.082; the NP40-soluble protein abundance (concentration: 1mM) is 1 ± 0.035; the NP40-soluble protein abundance (concentration: 2mM) was determined as 1.05 ± 0.14; the NP40-soluble protein abundance (concentration: 4mM) turned out to be 1.04 ± 0.17; the NP40-soluble protein abundance (concentration: 6mM) was 1.03 ± 0.11. Further, the NP40-soluble protein abundance is, setting by setting: (concentration: 8mM) 0.992 ± 0.07; (concentration: 10mM) 1.07 ± 0.13.

As to “A0A087X1G1|C9IZN5 and related entries (UniProt Q16718)”, the NP40-soluble protein abundance reads like this: (concentration: 0.1mM) 0.917 ± 0.041; (concentration: 0.5mM) 0.852 ± 0.0086; (concentration: 1mM) 1.09 ± 0.2; (concentration: 2mM) 1.13 ± 0.15; (concentration: 4mM) 1.14 ± 0.19; (concentration: 6mM) 1.11 ± 0.18. Besides, the NP40-soluble protein abundance runs as follows: (concentration: 8mM) 1.06 ± 0.026; (concentration: 10mM) 1.16 ± 0.27.

In the case of “A0A0A6YYH1|H0YLI7 and related entries (UniProt Q7Z6K5+P59780+H0YLI7)”, the NP40-soluble protein abundance was 1.04 ± 0.012 (concentration: 0.1mM); 1.07 ± 0.045 (concentration: 0.5mM); 1.06 ± 0.099 (concentration: 1mM); 1.03 ± 0.044 (concentration: 2mM); 0.986 ± 0.04 (concentration: 4mM); 1.01 ± 0.076 (concentration: 6mM). Besides, the NP40-soluble protein abundance is, setting by setting: (concentration: 8mM) 0.989 ± 0.017; (concentration: 10mM) 0.992 ± 0.049.

“A0A0J9YXJ0|E9PC62 and related entries (UniProt O95319)”: the NP40-soluble protein abundance was determined as 0.968 ± 0.069 (concentration: 0.1mM); 0.948 ± 0.061 (concentration: 0.5mM); 0.965 ± 0.063 (concentration: 1mM); 0.926 ± 0.079 (concentration: 2mM); 0.913 ± 0.074 (concentration: 4mM); 0.891 ± 0.063 (concentration: 6mM). For the same target, the NP40-soluble protein abundance was determined as 0.932 ± 0.057 (concentration: 8mM) and 0.911 ± 0.07 (concentration: 10mM).

Regarding “A0A0U1RR32|A0A0U1RRH7|P04908 and related entries (UniProt Q99878+Q7L7L0+Q6FI13+Q93077+P20671+P0C0S8+Q96KK5+P04908)”, the NP40-soluble protein abundance (concentration: 0.1mM) turned out to be 1.01 ± 0.11; the NP40-soluble protein abundance (concentration: 0.5mM) came to 0.7204 ± 0.0051; the NP40-soluble protein abundance (concentration: 1mM) turned out to be 1.26 ± 0.37; the NP40-soluble protein abundance (concentration: 2mM) turned out to be 1.24 ± 0.024; the NP40-soluble protein abundance (concentration: 4mM) was found to be 1.76 ± 0.48; the NP40-soluble protein abundance (concentration: 6mM) is 1.92 ± 0.49. Moreover, the NP40-soluble protein abundance is, setting by setting: (concentration: 8mM) 1.4 ± 0.53; (concentration: 10mM) 2.39 ± 1.2.

As for MEX3A (UniProt A1L020), the NP40-soluble protein abundance by setting is: (concentration: 0.1mM) 1.1 ± 0.13; (concentration: 0.5mM) 1.08 ± 0.016; (concentration: 1mM) 1.23 ± 0.36; (concentration: 2mM) 1.23 ± 0.021; (concentration: 4mM) 1.11 ± 0.17; (concentration: 6mM) 1.09 ± 0.081. The NP40-soluble protein abundance runs as follows: (concentration: 8mM) 1.04 ± 0.1; (concentration: 10mM) 1.06 ± 0.099.

As for “A0A087WXZ7|K7EIX2 and related entries (UniProt Q6AI08)”, the NP40-soluble protein abundance was 0.969 ± 0.05 (concentration: 0.1mM); 1.01 ± 0.024 (concentration: 0.5mM); 0.961 ± 0.069 (concentration: 1mM); 1.04 ± 0.052 (concentration: 2mM); 1.02 ± 0.076 (concentration: 4mM); 1.07 ± 0.018 (concentration: 6mM). Moreover, the NP40-soluble protein abundance reads like this: (concentration: 8mM) 1.04 ± 0.02; (concentration: 10mM) 1.14 ± 0.054.

Take A0A0A0MRI1|Q8IXQ4 (UniProt Q8IXQ4): the NP40-soluble protein abundance by setting is: (concentration: 0.1mM) 0.902 ± 0.043; (concentration: 0.5mM) 0.949 ± 0.097; (concentration: 1mM) 1.03 ± 0.041; (concentration: 2mM) 1.02 ± 0.081; (concentration: 4mM) 0.985 ± 0.072; (concentration: 6mM) 1.04 ± 0.1. In addition, the NP40-soluble protein abundance came to 1.05 ± 0.062 (concentration: 8mM) and 1.06 ± 0.051 (concentration: 10mM).

For “A0A087X1G7|A0A0B4J1S4|O60613 (UniProt O60613)”, the NP40-soluble protein abundance is 1.06 ± 0.053 (concentration: 0.1mM); 1.04 ± 0.093 (concentration: 0.5mM); 1.04 ± 0.085 (concentration: 1mM); 1.06 ± 0.041 (concentration: 2mM); 1.04 ± 0.045 (concentration: 4mM); 1.06 ± 0.043 (concentration: 6mM). The NP40-soluble protein abundance (concentration: 8mM) is 1.07 ± 0.082 and the NP40-soluble protein abundance (concentration: 10mM) is 1.05 ± 0.061.

On to A0A087X188|Q9UBW5 (UniProt Q9UBW5), for which the NP40-soluble protein abundance by setting is: (concentration: 0.1mM) 0.885 ± 0.11; (concentration: 0.5mM) 0.932 ± 0.13; (concentration: 1mM) 0.887 ± 0.12; (concentration: 2mM) 0.899 ± 0.15; (concentration: 4mM) 0.86 ± 0.12; (concentration: 6mM) 0.88 ± 0.12. In addition, the NP40-soluble protein abundance came out at 0.853 ± 0.094 (concentration: 8mM) and 0.934 ± 0.13 (concentration: 10mM).

Consider “A0A0A0MT32|P38571 and related entries (UniProt P38571)”, for which the NP40-soluble protein abundance (concentration: 0.1mM) is 0.943 ± 0.017; the NP40-soluble protein abundance (concentration: 0.5mM) was 0.999 ± 0.066; the NP40-soluble protein abundance (concentration: 1mM) was found to be 0.934 ± 0.021; the NP40-soluble protein abundance (concentration: 2mM) came to 0.928 ± 0.013; the NP40-soluble protein abundance (concentration: 4mM) amounted to 0.885 ± 0.035; the NP40-soluble protein abundance (concentration: 6mM) was 0.899 ± 0.015. Also, the NP40-soluble protein abundance (concentration: 8mM) turned out to be 0.981 ± 0.034 and the NP40-soluble protein abundance (concentration: 10mM) came out at 0.914 ± 0.0077.
